# Laboratory results: the supplement of paper PMC12819154, “High-throughput peptide-centric local stability assay extends protein–ligand identification to membrane proteins, tissues and bacteria” (Nature Structural & Molecular Biology, 2025)
# Protein sequences, listed by entry. Tags and fused reporters are not part of them. Lines headed by an entry give the natural chain unless they say otherwise; changes in a name come on top.
# UniProt P45552: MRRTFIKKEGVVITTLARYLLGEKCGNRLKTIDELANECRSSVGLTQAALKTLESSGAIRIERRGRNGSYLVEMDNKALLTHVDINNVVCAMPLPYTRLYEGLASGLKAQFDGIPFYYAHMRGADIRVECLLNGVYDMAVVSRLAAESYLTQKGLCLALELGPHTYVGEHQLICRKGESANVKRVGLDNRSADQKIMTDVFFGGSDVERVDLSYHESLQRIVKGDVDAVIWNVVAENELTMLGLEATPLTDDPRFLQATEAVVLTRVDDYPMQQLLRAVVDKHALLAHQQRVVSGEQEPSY
# UniProt P37634: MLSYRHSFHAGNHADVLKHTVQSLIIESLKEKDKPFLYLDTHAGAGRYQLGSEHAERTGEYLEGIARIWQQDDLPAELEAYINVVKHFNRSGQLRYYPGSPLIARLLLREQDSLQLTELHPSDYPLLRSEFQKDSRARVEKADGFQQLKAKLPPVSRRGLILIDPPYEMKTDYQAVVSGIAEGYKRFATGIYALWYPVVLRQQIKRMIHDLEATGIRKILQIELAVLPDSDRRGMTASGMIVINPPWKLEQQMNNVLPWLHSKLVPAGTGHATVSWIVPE
# UniProt P37645: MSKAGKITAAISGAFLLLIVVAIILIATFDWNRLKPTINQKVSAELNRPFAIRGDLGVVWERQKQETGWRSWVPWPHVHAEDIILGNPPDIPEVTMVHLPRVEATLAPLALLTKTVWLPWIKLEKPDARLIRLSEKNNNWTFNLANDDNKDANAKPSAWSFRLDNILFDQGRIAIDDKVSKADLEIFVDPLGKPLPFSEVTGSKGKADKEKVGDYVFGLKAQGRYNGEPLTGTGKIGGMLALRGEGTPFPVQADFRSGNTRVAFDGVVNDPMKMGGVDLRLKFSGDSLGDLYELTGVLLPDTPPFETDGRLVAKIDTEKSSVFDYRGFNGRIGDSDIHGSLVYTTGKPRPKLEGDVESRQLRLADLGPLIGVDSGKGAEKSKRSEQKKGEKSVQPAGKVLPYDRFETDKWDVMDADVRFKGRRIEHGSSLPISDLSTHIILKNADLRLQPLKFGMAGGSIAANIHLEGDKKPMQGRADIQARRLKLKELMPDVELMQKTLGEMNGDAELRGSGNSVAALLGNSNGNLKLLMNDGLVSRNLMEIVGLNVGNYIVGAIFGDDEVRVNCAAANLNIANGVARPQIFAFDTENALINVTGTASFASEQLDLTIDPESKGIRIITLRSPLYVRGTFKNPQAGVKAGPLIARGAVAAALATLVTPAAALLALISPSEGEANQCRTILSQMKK
# UniProt P37624: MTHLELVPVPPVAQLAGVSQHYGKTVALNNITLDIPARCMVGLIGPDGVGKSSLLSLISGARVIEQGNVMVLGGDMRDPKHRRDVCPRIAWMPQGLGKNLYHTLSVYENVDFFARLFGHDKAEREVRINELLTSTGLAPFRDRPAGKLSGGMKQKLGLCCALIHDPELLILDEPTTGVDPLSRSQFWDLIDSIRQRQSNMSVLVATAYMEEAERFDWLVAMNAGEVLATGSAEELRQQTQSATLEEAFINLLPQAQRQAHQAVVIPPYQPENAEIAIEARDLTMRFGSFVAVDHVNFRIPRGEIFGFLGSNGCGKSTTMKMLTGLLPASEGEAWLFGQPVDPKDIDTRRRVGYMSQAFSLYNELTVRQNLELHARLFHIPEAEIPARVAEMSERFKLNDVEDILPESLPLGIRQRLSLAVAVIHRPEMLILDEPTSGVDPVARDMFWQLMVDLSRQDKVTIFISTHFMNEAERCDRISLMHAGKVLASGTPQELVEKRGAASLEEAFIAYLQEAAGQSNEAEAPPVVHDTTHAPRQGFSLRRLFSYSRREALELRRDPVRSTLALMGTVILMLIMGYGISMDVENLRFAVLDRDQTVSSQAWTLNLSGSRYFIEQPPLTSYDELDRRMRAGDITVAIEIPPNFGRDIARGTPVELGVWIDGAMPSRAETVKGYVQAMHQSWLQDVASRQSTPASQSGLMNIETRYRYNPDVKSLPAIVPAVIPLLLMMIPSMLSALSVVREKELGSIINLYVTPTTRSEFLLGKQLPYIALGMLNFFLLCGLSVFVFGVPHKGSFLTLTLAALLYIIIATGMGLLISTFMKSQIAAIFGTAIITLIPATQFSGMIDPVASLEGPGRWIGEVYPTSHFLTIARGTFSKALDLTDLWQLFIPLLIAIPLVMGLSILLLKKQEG
# UniProt P34209: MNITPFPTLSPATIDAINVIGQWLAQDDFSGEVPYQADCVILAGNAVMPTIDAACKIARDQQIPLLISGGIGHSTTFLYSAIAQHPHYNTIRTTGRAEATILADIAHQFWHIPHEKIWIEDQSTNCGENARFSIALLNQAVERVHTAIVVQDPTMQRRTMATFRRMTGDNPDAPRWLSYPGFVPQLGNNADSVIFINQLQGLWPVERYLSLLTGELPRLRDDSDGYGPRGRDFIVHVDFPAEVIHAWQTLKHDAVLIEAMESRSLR
# UniProt P37641: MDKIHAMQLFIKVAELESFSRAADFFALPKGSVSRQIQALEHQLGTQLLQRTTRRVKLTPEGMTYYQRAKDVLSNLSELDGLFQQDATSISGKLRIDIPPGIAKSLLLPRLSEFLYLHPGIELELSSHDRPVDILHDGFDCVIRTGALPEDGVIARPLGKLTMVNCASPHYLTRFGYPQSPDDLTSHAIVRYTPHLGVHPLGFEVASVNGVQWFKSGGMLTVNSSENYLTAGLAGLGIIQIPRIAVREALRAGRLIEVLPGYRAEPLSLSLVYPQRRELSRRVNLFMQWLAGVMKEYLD
# UniProt P33927: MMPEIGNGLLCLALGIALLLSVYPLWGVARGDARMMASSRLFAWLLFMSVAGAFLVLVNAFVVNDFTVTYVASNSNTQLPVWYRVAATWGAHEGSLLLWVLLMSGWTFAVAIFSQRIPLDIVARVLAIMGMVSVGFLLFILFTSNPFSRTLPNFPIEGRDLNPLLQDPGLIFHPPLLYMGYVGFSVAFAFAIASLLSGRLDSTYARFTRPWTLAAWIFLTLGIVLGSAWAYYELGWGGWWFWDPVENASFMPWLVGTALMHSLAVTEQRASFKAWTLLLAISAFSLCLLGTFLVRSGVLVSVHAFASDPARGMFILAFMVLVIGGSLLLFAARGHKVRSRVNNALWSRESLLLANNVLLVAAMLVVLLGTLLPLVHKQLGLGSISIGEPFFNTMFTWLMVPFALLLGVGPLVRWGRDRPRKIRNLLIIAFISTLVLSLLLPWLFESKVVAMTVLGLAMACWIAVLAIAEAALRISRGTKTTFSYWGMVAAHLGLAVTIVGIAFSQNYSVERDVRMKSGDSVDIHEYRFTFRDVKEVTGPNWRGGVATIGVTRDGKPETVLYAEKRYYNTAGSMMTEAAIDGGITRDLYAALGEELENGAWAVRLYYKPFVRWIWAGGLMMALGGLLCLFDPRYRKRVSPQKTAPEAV
# UniProt P37342: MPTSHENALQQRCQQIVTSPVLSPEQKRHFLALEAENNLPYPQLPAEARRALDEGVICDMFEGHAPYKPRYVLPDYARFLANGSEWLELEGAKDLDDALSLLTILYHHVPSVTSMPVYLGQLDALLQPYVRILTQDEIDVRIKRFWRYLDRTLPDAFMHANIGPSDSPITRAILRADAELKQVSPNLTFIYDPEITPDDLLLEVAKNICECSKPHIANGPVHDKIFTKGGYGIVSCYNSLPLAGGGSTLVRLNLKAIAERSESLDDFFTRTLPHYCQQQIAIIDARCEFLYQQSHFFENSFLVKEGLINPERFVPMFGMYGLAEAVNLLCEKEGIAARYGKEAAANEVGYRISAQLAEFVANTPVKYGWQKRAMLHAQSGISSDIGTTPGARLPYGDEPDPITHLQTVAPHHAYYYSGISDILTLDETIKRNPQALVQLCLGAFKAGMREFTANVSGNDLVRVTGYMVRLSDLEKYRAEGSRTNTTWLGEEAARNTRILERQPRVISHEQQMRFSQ
# UniProt P37747: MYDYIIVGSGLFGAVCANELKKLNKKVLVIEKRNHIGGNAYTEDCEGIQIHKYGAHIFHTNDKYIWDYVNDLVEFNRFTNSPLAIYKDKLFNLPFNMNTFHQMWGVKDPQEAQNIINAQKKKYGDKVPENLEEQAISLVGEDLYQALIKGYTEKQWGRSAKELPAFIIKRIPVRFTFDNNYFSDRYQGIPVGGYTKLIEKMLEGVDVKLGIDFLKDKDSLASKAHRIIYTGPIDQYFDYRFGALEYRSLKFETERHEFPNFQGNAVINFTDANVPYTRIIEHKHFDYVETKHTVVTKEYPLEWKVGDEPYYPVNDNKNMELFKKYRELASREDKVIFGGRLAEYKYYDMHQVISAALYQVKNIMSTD
# UniProt P39409: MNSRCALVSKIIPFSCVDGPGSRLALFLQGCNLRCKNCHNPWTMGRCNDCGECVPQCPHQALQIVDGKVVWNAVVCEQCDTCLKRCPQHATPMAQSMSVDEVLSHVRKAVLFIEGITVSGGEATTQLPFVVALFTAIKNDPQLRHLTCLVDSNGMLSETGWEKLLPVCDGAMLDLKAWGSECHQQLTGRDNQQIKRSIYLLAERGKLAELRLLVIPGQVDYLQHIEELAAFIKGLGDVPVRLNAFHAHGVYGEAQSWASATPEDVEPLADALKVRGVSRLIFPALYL
# UniProt P39310: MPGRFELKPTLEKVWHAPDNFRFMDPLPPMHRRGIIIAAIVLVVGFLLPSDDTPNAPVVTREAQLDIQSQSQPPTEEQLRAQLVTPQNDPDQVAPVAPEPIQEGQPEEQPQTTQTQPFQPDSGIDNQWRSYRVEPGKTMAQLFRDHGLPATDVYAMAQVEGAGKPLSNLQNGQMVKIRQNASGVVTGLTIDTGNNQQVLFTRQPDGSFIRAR
# UniProt P45771: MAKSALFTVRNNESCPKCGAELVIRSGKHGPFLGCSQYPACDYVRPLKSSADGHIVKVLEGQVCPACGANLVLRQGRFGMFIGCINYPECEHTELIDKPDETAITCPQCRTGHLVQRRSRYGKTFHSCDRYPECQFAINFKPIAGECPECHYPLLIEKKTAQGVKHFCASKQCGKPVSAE
# UniProt P39400: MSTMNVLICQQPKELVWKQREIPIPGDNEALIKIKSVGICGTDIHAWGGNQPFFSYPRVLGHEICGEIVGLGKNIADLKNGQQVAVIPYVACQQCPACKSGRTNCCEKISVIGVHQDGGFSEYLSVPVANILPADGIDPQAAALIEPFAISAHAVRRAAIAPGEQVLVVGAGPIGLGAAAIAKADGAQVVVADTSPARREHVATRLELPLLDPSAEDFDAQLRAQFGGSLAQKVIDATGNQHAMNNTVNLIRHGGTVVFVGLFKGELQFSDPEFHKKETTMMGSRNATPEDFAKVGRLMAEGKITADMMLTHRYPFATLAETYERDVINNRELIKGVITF
# UniProt P42616: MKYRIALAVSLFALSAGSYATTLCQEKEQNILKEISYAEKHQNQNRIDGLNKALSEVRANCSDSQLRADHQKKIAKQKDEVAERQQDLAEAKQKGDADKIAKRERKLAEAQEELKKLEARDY
# This is one part of the list. Most entries show no effect beyond the scatter of the controls.
# Compound: CC1(C)S[C@@H]2[C@H](NC(=O)[C@H](N)c3ccccc3)C(=O)N2[C@H]1C(=O)O [ampicillin]
# Assay: log2 fold change of tryptic peptide abundance, ligand vs vehicle (limited proteolysis) (log2 ratio); higher = more trypsin-susceptible (destabilized)
# Conditions: ligand concentration: 10 uM; sample: E. coli crude lysate
row,Target,log2 fold change
1,"UniProt P45552 (peptide sequence: VDLSYHESLQR, peptide start residue: 210)",0.132
2,"UniProt P37634 (peptide sequence: EKDKPFLYLDTHAGAGR, peptide start residue: 31)",0.415
3,"UniProt P37645 (peptide sequence: LDNILFDQGR, peptide start residue: 163)",0.31
4,"UniProt P37624 (peptide sequence: FGSFVAVDHVNFR, peptide start residue: 286)",-0.125
5,"UniProt P34209 (peptide sequence: RTMATFR, peptide start residue: 158)",0.312
6,"UniProt P37641 (peptide sequence: LIEVLPGYR, peptide start residue: 255)",-0.313
7,"UniProt P33927 (peptide sequence: GGVATIGVTR, peptide start residue: 543)",-0.22
8,"UniProt P37342 (peptide sequence: ALDEGVICDMFEGHAPYKPR, peptide start residue: 51)",-0.182
9,"UniProt P37747 (peptide sequence: EYPLEWK, peptide start residue: 298)",-0.183
10,"UniProt P39409 (peptide sequence: SIYLLAER, peptide start residue: 197)",-0.0854
11,"UniProt P39310 (peptide sequence: TMAQLFR, peptide start residue: 138)",0.15
12,"UniProt P45771 (peptide sequence: HGPFLGCSQYPACDYVRPLK, peptide start residue: 29)",0.126
13,"UniProt P39400 (peptide sequence: VLGHEICGEIVGLGK, peptide start residue: 59)",0.349
14,"UniProt P42616 (peptide sequence: EISYAEKHQNQNR, peptide start residue: 34)",0.111
